Assay results as given in the supplement of paper PMC10849652.
The other results are listed elsewhere or left out.

Chains of the proteins cited; added tags and fusions are not shown. Lines headed by an entry give the natural chain unless they say otherwise; changes in a name come on top.
UniProt Q96NS5: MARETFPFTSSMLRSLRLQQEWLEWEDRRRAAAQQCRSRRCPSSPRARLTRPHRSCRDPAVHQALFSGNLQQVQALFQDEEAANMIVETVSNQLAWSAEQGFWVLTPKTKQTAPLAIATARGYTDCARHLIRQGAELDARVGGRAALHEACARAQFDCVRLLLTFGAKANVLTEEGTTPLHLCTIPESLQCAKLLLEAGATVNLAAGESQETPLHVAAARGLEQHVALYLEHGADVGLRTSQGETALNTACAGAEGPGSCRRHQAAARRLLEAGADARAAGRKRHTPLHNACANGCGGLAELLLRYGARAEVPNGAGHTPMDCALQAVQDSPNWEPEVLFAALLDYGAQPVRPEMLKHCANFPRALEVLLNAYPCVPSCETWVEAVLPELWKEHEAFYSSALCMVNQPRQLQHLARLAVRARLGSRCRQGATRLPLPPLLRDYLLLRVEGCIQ
UniProt Q9ULI0: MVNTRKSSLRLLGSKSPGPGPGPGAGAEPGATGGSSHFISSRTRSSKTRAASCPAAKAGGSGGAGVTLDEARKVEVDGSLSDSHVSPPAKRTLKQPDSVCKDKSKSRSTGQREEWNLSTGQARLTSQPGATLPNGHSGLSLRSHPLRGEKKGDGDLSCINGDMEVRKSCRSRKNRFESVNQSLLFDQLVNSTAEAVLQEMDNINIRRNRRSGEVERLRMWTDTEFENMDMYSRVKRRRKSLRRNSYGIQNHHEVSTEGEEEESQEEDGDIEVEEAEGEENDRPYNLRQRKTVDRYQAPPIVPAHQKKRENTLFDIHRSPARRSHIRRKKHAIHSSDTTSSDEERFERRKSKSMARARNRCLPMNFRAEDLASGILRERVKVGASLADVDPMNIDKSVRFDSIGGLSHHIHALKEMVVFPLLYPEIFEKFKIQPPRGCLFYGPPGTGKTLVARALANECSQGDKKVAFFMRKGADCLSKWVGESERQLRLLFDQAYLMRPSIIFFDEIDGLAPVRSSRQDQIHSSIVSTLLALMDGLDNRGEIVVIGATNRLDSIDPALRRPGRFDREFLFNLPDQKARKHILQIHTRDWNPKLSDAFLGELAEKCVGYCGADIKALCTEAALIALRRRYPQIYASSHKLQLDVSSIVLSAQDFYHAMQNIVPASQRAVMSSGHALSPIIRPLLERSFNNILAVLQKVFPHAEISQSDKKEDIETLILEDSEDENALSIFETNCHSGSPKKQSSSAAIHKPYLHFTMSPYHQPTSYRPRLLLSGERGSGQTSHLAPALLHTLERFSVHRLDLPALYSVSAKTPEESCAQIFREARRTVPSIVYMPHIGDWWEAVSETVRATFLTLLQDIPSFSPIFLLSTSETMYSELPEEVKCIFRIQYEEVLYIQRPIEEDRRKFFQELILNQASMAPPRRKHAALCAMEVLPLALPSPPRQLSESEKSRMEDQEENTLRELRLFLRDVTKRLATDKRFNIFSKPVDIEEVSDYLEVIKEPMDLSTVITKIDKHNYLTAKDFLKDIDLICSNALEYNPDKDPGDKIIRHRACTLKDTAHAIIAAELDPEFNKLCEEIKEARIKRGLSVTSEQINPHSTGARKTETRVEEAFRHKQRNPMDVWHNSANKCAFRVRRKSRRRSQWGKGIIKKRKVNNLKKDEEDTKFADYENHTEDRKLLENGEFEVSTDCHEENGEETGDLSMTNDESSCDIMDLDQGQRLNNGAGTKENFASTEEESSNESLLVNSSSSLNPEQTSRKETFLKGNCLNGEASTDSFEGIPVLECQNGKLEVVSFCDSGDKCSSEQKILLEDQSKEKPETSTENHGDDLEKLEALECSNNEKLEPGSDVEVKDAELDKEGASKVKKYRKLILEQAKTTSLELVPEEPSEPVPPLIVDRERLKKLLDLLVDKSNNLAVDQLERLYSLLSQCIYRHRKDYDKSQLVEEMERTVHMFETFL
UniProt Q96L58: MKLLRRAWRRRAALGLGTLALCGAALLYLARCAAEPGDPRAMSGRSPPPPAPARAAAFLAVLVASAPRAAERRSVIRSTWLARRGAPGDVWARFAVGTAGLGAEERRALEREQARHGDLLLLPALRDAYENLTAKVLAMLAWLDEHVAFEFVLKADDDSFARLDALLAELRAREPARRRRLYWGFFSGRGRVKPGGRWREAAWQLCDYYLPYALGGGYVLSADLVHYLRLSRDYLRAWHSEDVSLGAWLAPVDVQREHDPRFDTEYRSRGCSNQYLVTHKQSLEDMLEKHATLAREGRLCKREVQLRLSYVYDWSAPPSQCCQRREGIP
UniProt Q8NCR0: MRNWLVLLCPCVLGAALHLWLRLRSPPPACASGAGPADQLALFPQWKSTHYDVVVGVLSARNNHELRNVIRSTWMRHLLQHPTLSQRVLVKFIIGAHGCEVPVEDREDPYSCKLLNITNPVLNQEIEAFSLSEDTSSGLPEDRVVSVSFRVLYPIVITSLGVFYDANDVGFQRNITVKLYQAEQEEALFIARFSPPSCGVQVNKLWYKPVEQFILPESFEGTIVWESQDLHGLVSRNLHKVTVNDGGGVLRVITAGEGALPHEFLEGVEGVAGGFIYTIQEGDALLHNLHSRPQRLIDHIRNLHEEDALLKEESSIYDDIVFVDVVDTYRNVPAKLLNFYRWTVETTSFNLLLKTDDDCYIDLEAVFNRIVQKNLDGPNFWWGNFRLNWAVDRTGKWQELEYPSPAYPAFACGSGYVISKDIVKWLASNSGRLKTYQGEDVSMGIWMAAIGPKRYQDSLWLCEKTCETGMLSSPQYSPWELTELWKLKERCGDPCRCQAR
UniProt Q9UN42: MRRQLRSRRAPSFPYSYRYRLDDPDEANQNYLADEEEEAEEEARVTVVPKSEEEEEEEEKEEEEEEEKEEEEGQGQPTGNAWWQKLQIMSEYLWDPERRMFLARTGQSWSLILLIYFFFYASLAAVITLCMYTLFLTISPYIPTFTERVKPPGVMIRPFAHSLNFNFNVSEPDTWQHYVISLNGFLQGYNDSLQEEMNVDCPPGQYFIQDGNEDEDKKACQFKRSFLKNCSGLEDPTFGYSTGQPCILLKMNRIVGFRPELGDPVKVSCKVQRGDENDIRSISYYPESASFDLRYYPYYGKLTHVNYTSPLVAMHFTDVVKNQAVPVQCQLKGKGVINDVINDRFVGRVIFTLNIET
UniProt Q6UW56: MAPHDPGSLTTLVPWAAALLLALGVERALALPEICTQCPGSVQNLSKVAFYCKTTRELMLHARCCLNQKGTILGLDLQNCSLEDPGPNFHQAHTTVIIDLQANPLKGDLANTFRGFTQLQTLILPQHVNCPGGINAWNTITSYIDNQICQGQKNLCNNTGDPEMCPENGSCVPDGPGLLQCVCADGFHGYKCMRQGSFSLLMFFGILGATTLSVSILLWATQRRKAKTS
UniProt Q9H0Y0: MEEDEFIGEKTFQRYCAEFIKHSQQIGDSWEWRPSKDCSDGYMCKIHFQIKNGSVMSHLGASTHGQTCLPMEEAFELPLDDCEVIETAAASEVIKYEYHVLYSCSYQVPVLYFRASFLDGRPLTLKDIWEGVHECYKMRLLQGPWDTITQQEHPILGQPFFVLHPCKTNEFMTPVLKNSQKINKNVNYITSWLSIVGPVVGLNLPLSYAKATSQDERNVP
UniProt H3BUF6: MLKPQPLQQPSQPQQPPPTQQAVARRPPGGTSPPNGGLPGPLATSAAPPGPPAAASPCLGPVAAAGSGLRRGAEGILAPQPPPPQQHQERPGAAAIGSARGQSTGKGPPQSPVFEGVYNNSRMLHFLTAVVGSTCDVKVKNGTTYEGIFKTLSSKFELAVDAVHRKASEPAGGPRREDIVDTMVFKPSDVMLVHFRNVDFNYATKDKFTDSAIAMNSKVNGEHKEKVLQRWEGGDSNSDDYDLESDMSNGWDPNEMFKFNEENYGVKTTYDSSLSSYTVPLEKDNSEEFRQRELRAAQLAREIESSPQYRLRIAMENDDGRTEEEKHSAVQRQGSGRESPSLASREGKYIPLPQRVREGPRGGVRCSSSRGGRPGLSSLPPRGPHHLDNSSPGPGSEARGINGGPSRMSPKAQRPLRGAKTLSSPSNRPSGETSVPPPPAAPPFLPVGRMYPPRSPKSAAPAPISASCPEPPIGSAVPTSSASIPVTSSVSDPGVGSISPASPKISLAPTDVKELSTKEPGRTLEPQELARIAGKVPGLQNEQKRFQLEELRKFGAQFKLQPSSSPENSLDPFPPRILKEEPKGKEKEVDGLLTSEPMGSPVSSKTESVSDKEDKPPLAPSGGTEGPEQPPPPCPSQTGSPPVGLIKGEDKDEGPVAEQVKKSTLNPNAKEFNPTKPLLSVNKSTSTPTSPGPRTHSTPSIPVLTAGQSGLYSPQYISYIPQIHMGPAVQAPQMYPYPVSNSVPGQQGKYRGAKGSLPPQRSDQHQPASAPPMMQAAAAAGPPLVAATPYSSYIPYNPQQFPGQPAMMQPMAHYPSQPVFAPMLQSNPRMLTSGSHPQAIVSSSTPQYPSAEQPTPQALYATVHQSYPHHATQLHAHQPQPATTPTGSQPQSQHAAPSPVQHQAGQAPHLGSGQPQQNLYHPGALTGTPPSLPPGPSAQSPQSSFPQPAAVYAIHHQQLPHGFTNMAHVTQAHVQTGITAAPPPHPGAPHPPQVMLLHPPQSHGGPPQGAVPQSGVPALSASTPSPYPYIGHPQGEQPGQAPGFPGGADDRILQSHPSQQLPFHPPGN
UniProt Q00973: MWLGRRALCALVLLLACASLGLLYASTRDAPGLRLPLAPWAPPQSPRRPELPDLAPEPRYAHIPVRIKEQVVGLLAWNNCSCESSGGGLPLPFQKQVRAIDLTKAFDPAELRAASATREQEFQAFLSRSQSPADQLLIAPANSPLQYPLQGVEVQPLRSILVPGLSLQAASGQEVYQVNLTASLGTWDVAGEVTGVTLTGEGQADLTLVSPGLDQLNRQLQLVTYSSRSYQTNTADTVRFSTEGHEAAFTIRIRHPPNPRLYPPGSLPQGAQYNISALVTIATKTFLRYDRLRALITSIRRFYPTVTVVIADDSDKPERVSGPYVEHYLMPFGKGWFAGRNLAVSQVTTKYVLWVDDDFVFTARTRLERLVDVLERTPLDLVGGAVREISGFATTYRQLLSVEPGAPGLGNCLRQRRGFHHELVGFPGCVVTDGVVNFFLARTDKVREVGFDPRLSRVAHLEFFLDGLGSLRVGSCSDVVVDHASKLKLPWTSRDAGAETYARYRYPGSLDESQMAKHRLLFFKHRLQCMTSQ
UniProt P98194: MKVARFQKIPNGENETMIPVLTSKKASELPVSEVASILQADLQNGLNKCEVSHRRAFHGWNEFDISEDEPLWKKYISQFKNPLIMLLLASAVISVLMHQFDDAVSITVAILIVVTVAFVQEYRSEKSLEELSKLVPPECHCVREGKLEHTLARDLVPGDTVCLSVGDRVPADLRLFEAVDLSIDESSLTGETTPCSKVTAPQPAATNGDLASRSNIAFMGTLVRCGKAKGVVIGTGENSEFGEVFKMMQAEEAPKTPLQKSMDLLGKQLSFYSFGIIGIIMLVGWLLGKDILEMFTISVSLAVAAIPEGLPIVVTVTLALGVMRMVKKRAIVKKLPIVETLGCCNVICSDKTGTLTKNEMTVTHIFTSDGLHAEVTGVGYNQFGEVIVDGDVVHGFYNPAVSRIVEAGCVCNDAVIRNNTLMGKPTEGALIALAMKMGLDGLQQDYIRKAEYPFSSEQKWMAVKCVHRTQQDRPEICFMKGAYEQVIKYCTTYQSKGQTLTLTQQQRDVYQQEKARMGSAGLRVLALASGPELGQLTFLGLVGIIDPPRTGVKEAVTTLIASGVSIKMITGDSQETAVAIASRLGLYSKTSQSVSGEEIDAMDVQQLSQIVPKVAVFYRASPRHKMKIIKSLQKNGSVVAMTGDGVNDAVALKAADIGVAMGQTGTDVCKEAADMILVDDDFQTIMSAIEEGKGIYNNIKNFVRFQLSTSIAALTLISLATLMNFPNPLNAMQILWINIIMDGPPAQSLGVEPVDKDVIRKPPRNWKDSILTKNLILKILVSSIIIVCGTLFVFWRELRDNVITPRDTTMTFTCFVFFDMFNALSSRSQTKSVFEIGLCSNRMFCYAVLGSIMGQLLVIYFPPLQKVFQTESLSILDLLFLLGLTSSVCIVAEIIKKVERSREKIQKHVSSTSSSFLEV
UniProt Q96GX2: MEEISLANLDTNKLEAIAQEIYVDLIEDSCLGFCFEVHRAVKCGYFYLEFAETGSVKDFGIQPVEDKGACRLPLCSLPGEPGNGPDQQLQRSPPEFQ
UniProt Q96DX5: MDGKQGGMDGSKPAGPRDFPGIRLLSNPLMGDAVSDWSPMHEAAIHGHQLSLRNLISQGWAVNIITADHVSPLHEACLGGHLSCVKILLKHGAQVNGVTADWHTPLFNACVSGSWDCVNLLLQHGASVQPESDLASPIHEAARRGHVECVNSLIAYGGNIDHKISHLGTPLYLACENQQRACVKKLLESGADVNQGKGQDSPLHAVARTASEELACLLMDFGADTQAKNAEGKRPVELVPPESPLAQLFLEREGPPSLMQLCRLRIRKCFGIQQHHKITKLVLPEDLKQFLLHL

Key:
Experiment in all cases: log2 fold change, soluble protein after heating vs DMSO (PISA); higher = thermal stabilisation; K562 lysate, 10 uM; active = over 0.2 and 3.5 SD of the protein, either way, in both replicates (recomputed)
[1] = compound: CS(=O)(=O)CCNCc1ccc(-c2ccc3ncnc(Nc4ccc(OCc5cccc(F)c5)c(Cl)c4)c3c2)o1 [lapatinib]
Outline: (§1)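 K562 pellets were dounce-homogenised in PBS pH 7.4 containing 1 mM MgCl2, and the crude extract, at 1 mg/mL protein, was exposed to 10 μM compound for 30 min. Aliquots were heated for 3 min across 48°C-58°C, pooled, brought to 0.5% NP-40 at 4°C and spun at 21,000xg for 90 min, with the supernatant taken as soluble protein. TMTpro 16plex LC-MS/MS with equalised channel sums quantified that protein. Values are log-two fold changes in thermal stability relative to solvent controls, taken from duplicates.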

[2] = compound: C[C@@H](Oc1cc(-c2cnn(C3CCNCC3)c2)cnc1N)c1c(Cl)ccc(F)c1Cl [crizotinib]
Outline: as §1

[3] = compound: C[C@H](Nc1ncnc2nc[nH]c12)c1cc2cccc(Cl)c2c(=O)n1-c1ccccc1 [duvelisib]
Outline: as §1

[4] = compound: Cc1ccc(-n2nc(C(C)(C)C)cc2NC(=O)Nc2ccc(OCCN3CCOCC3)c3ccccc23)cc1 [doramapimod]
Outline: as §1

[5] = compound: Cc1nc(Nc2ncc(C(=O)Nc3c(C)cccc3Cl)s2)cc(N2CCN(CCO)CC2)n1 [dasatinib]
Outline: as §1

[6] = compound: Cn1cc(-c2ccc3c(c2)CCN3C(=O)Cc2cccc(C(F)(F)F)c2)c2c(N)ncnc21
Outline: as §1

[7] = compound: Cn1cc(CNCC2CCN(c3ncc(C(=O)NO)cn3)CC2)c2ccccc21 [quisinostat]
Outline: as §1

[8] = compound: NC(=O)Nc1cc(-c2cccc(F)c2)sc1C(=O)N[C@H]1CCCNC1
Outline: as §1

[9] = compound: NC(=O)c1cnc(N[C@@H]2CCCC[C@@H]2N)nc1Nc1cccc(-n2nccn2)c1
Outline: as §1

[10] = compound: CS(=O)(=O)N1CCN(Cc2cc3nc(-c4cccc5[nH]ncc45)nc(N4CCOCC4)c3s2)CC1 [pictilisib]
Outline: as §1

[11] = compound: Cc1cc(Nc2cc(N3CCN(C)CC3)nc(Sc3ccc(NC(=O)C4CC4)cc3)n2)n[nH]1 [tozasertib]
Outline: as §1

[12] = compound: Cc1ccc(NC(=O)c2ccc(CN3CC[C@H](N(C)C)C3)c(C(F)(F)F)c2)cc1Nc1nccc(-c2cncnc2)n1 [bafetinib]
Outline: as §1

[13] = compound: Cc1cn(-c2cc(NC(=O)c3ccc(C)c(Nc4nccc(-c5cccnc5)n4)c3)cc(C(F)(F)F)c2)cn1 [nilotinib]
Outline: as §1

[14] = compound: Cc1nc(Nc2n[nH]c3c2CN(C(=O)N[C@H](CN(C)C)c2ccccc2)C3(C)C)c2sccc2n1
Outline: as §1

[15] = compound: Cc1ncc(-c2ccnc(Nc3ccc(S(C)(=O)=O)cc3)n2)n1C(C)C
Outline: as §1

[16] = compound: Cn1cncc1[C@@](N)(c1ccc(Cl)cc1)c1ccc2c(c1)c(-c1cccc(Cl)c1)cc(=O)n2C [tipifarnib]
Outline: as §1

[17] = compound: NC1(c2ccc(-c3nc4ccn5c(=O)[nH]nc5c4cc3-c3ccccc3)cc2)CCC1
Outline: as §1

[18] = compound: C[C@H](C1=CC=C(C=C1)C(=O)NC2=C3C=CNC3=NC=C2)N
Outline: as §1

[19] = compound: Cc1cc(Nc2cc(CN3CCOCC3)c3nc(C)c(Cc4ccc(Cl)cc4F)n3n2)n[nH]1 [gandotinib]
Outline: as §1

[20] = compound: Cc1cccc(CC(=O)N2CCc3c2ccc(-c2cn(C)c4ncnc(N)c24)c3F)n1
Outline: as §1

Measured: log2 fold change

ASB16 (UniProt Q96NS5)
inactive: [1] -0.215 | [2] -0.517 | [3] -0.074 | [4] -0.3 | [5] 0.023 | [6] -0.229 | [7] -0.237 | [8] -0.009 | [9] 0.045

ATF6B (UniProt Q99941)
inactive: [2] -0.238 | [4] 0 | [7] -0.091 | [8] 0.135

ATG14 (UniProt Q6ZNE5)
inactive: [10] 0.02 | [3] 0.085 | [11] 0.101 | [12] 0.022 | [13] 0.087 | [14] -0.072 | [5] 0.055 | [15] -0.134 | [6] 0.037 | [16] -0.236 | [17] -0.19

ATAD2B (UniProt Q9ULI0)
inactive: [10] -0.329 | [12] 0.047

AUNIP isoform 2 (UniProt Q9H7T9)
inactive: [10] 0.116 | [2] 0.004 | [18] -0.115 | [3] 0.004 | [19] 0.166 | [11] -0.218 | [4] 0.037 | [12] 0.165 | [20] -0.095 | [5] -0.007 | [6] 0.024 | [7] -0.087 | [8] -0.006 | [17] 0.116

B3GALT6 (UniProt Q96L58)
inactive: [10] -0.047 | [2] -0.123 | [3] 0.045 | [4] 0.1 | [12] -0.066 | [5] -0.148 | [6] 0.233 | [7] -0.086 | [8] 0.137 | [17] -0.174

B3GALNT2 (UniProt Q8NCR0)
inactive: [1] 0.148 | [2] 0.174 | [3] 0.21 | [4] 0.108 | [13] 0.026 | [14] -0.19 | [5] -0.086 | [15] -0.11 | [6] -0.019 | [7] -0.055 | [16] -0.182 | [8] -0.149 | [9] 0.116

ASNSD1 (UniProt Q9NWL6)
inactive: [10] 0.036 | [18] -0.036 | [19] 0.01 | [11] -0.007 | [12] 0 | [20] 0.055 | [13] -0.017 | [14] 0.031 | [15] 0.071 | [16] -0.031 | [17] 0.023

ATP1B4 (UniProt Q9UN42)
inactive: [1] 0.111 | [2] 0.197 | [3] -0.128 | [4] -0.077 | [5] 0.032 | [6] -0.011 | [7] 0.139 | [8] 0.024 | [9] -0.002

ATRAID isoform 3 (UniProt Q6UW56)
inactive: [1] 0.009 | [2] 0.035 | [3] 0.007 | [11] 0.013 | [4] 0.032 | [13] -0.045 | [14] -0.001 | [5] 0.034 | [15] 0.046 | [6] -0.038 | [7] -0.162 | [16] 0.042 | [8] 0.026 | [9] -0.013 | [17] -0.027

ATP5F1A (UniProt K7ENJ4)
inactive: [1] 0.024 | [18] -0.181 | [19] -0.082 | [20] 0.25 | [13] -0.288 | [14] 0.039 | [15] 0.093 | [16] 0.081 | [9] -0.06 | [17] 0.162

ATXN1L (UniProt P0C7T5)
inactive: [10] 0.012 | [2] 0.031 | [18] 0.023 | [19] -0.058 | [11] 0.182 | [4] -0.01 | [12] 0.199 | [20] -0.034 | [13] -0.047 | [14] 0.031 | [15] -0.061 | [7] -0.014 | [16] 0.106 | [8] 0.031

AVEN (UniProt Q9NQS1)
inactive: [10] 0.022 | [2] -0.08 | [18] -0.462 | [3] 0.014 | [19] 0.262 | [11] 0.084 | [4] 0.068 | [12] -0.097 | [20] 0.338 | [13] -0.014 | [14] 0.068 | [5] 0.01 | [15] 0.025 | [6] -0.08 | [7] -0.042 | [16] -0.188 | [8] 0.038 | [17] 0.154

ATXN2L (UniProt Q8WWM7)
inactive: [10] -0.045 | [2] 0.04 | [18] 0.028 | [3] -0.018 | [19] 0.031 | [11] 0.05 | [4] 0.028 | [12] -0.057 | [20] -0.009 | [13] 0 | [14] 0.034 | [5] 0.076 | [15] -0.027 | [6] -0.103 | [7] 0.054 | [16] -0.119 | [8] -0.069 | [17] -0.13

ATG10 (UniProt Q9H0Y0)
inactive: [10] -0.051 | [2] -0.008 | [18] 0.021 | [3] 0.065 | [19] -0.023 | [11] -0.087 | [4] -0.014 | [12] 0.012 | [20] 0.063 | [13] -0.064 | [14] 0.026 | [5] 0.043 | [15] -0.16 | [6] -0.068 | [7] 0.015 | [16] 0.125 | [8] -0.01 | [17] 0.016

ATXN2L (UniProt H3BUF6)
inactive: [1] -0.049 | [2] 0.047 | [18] 0.004 | [3] 0.028 | [19] 0.115 | [11] -0.001 | [4] 0.115 | [20] 0.013 | [13] -0.027 | [14] -0.043 | [5] -0.101 | [15] 0.153 | [6] -0.05 | [7] -0.07 | [16] 0.111 | [8] -0.032 | [9] 0.016 | [17] -0.011

B4GALNT1 (UniProt Q00973)
inactive: [1] -0.146 | [2] -0.029 | [18] 0.067 | [3] -0.054 | [19] 0.081 | [11] 0.072 | [4] -0.022 | [20] 0.023 | [13] -0.056 | [14] -0.002 | [5] 0.167 | [15] -0.175 | [6] 0.018 | [7] -0.063 | [16] -0.127 | [8] 0.018 | [9] 0.158 | [17] 0.03

ATP2C1 isoform 3 (UniProt P98194)
inactive: [18] -0.017 | [19] -0.032 | [20] 0.189 | [17] -0.049

Two consecutive entries out of the list so far, for reference:
ATG10 (UniProt Q9H0Y0)
inactive: [10] -0.051 | [2] -0.008 | [18] 0.021 | [3] 0.065 | [19] -0.023 | [11] -0.087 | [4] -0.014 | [12] 0.012 | [20] 0.063 | [13] -0.064 | [14] 0.026 | [5] 0.043 | [15] -0.16 | [6] -0.068 | [7] 0.015 | [16] 0.125 | [8] -0.01 | [17] 0.016

ATXN2L (UniProt H3BUF6)
inactive: [1] -0.049 | [2] 0.047 | [18] 0.004 | [3] 0.028 | [19] 0.115 | [11] -0.001 | [4] 0.115 | [20] 0.013 | [13] -0.027 | [14] -0.043 | [5] -0.101 | [15] 0.153 | [6] -0.05 | [7] -0.07 | [16] 0.111 | [8] -0.032 | [9] 0.016 | [17] -0.011

Continuation.

AURKB isoform 5 (UniProt Q96GD4)
inactive: [10] -0.042 | [18] -0.036 | [3] -0.023 | [19] 0.673 | [11] 0.318 | [4] -0.027 | [12] 0.02 | [20] 0.043 | [13] -0.175 | [14] 0.008 | [5] 0.195 | [15] 0.073 | [6] 0.206 | [7] -0.124 | [16] -0.043 | [8] 0.741 | [17] -0.072

ASTE1 (UniProt Q2TB18)
inactive: [1] 0.028 | [2] -0.009 | [4] 0.037 | [7] -0.069 | [8] 0.332 | [9] -0.02

ATP5F1C isoform 2 (UniProt P36542)
inactive: [10] -0.008 | [2] 0.075 | [4] 0.146 | [12] -0.106 | [7] -0.294 | [8] -0.193

ATPSCKMT (UniProt Q6P4H8)
inactive: [10] -0.113 | [2] -0.039 | [3] -0.036 | [11] -0.219 | [4] 0.022 | [12] -0.034 | [5] 0.052 | [6] -0.021 | [7] 0.018 | [8] 0.001

ATXN7L3B (UniProt Q96GX2)
inactive: [10] 0.057 | [2] -0.014 | [18] 0.043 | [3] 0.027 | [19] 0.048 | [11] 0.154 | [4] 0.017 | [12] -0.073 | [20] 0.038 | [13] 0.043 | [14] 0.068 | [5] 0.036 | [15] 0.085 | [6] 0.021 | [7] -0.111 | [16] 0.009 | [8] 0.002 | [17] 0.014

ATG4D (UniProt Q86TL0)
inactive: [10] -0.054 | [2] -0.031 | [3] 0.109 | [11] 0.099 | [4] -0.072 | [12] -0.056 | [5] -0.037 | [7] -0.085 | [8] 0.084
active: [6] -0.57

ASB9 (UniProt Q96DX5)
inactive: [1] 0.198 | [9] -0.114 | [17] -0.168
